# In PMC9636508:
# Protein sequences, listed by entry. Tags and fused reporters are not part of them. Lines headed by an entry give the natural chain unless they say otherwise; changes in a name come on top.
# UniProt Q9UNF0: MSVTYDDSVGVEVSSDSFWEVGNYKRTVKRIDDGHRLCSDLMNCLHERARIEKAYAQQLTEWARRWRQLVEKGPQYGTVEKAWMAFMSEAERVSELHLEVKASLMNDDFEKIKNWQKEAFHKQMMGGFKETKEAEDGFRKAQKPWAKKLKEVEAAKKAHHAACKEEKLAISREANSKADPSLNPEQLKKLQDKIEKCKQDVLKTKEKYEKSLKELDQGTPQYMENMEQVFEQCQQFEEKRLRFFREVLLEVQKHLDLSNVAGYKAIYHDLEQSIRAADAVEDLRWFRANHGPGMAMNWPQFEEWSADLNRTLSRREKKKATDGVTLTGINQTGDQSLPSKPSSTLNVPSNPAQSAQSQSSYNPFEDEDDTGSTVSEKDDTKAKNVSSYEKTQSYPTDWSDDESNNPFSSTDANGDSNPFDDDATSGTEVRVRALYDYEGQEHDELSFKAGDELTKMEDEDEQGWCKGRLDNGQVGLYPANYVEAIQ
# UniProt Q53SF7: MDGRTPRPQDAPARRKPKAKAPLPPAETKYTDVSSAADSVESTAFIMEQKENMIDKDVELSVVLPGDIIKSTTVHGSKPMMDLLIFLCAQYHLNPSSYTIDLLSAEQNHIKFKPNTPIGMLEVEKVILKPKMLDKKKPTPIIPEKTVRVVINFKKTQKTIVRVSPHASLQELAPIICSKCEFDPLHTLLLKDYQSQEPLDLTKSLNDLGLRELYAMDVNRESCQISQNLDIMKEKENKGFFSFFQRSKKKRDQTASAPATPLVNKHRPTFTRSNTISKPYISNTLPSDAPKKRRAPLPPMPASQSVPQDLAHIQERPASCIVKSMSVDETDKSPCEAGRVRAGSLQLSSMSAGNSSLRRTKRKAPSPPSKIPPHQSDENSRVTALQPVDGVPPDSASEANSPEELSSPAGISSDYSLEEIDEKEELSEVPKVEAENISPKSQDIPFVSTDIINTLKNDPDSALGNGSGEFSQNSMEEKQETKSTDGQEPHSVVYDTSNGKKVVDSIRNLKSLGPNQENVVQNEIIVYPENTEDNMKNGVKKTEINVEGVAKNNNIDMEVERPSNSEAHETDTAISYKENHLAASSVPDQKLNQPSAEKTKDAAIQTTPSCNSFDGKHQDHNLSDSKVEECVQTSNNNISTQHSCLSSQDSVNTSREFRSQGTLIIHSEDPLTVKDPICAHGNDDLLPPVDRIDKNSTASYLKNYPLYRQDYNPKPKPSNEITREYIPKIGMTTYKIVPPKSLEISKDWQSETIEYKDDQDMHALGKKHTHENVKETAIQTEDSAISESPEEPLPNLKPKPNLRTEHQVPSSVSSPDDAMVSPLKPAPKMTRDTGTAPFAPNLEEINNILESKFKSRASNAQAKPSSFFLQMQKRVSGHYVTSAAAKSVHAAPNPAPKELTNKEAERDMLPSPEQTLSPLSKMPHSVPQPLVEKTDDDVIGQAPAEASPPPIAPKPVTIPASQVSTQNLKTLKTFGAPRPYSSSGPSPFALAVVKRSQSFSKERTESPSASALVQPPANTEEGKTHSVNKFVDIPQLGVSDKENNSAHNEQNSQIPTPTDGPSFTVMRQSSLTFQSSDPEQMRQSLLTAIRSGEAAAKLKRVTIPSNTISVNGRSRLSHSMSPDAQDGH
# Target: PACSIN2 wild type, overexpressed (human) (UniProt Q9UNF0)
# Assay: co-IP; K562 cells transfected with expression plasmids, lysed after 24 h in NETN buffer (150 mM NaCl, 0.5 mM EDTA, 50 mM Tris pH 7.5, 0.5% NP-40); streptavidin-coated beads or protein A-agarose with primary antibody; western blot
row,Substance,binding
1,Cobll1 D2 (internal deletion mutant) (from UniProt Q53SF7),binds
2,Cobll1 D3 (internal deletion mutant) (from UniProt Q53SF7),binds
3,Cobll1 D4 (internal deletion mutant) (from UniProt Q53SF7),binds
4,Cobll1-3A mutant (all three proline-rich motifs mutated to alanine) (from UniProt Q53SF7),no binding

# No constants are given. Whether binding was seen depends on the method and setting. Binding seen in cells or lysates may run through a third protein. Binding can be weak; no strength is given.
